Test results: paper PMC9905200
Results are given in words; binding and its absence hold for the method and conditions named. Binding seen in cells or lysates may run through a third protein. A result given as binding can be weak or reduced; the word gives no strength.

Sequences of proteins named here, by UniProt entry; tags and fusion partners are left off. A change or cut given only in a name is not applied to a line headed by its entry. Residues count along the entry.
UniProt P02649, residues 19-317: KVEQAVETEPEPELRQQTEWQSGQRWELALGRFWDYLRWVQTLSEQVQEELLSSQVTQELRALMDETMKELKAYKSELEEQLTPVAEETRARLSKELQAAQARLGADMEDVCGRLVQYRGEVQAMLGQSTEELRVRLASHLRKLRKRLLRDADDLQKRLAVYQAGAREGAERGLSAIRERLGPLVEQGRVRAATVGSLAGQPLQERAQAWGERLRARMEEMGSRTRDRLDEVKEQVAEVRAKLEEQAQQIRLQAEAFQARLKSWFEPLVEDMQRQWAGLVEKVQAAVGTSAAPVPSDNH
UniProt Q60932: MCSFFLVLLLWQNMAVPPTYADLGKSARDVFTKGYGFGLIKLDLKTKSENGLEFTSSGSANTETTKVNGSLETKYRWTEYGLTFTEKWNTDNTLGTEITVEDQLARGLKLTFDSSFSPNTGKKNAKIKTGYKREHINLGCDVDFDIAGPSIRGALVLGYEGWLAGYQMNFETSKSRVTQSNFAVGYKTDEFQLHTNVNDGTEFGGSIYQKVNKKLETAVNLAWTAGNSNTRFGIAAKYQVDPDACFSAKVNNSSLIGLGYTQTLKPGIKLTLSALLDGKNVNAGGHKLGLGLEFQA

Biological target: human apolipoprotein E3 (APOE3) in APOE3 targeted replacement mouse liver (human) (UniProt P02649)
Assay: co-IP; APOE precipitated with anti-APOE antibody (sc-13521) and Protein G Sepharose from liver lysates (NP40 lysis buffer, 4 °C) of male APOE TR mice, Western blot of the eluates; mice fed ad libitum (AL) or under 30% dietary restriction (DR); interactions stronger upon DR

binding: binds
Substance: voltage-dependent anion-selective channel 1 (VDAC1), mouse liver (from UniProt Q60932)
